# Data from PMC4886219, “Bioengineered kidney tubules efficiently excrete uremic toxins” (Scientific Reports, 2016).
# Key:
# [1] = system: bioengineered renal tubules (ciPTEC); experiment: Endocytosis-mediated albumin (BSA-FITC) uptake in bioengineered renal tubules; assay type: cell-based, human; conditions: 25 μg/ml, 30 min
# [2] = system: ciPTEC-OAT1 on double-coated HFM; experiment: FITC-inulin leakage, transepithelial barrier function of ciPTEC-OAT1 on HFM; assay type: cell-based, human; conditions: within 1 min of perfusion, 0.1 mg/ml
Substance,"intracellular BSA-FITC uptake (in words) ([1]; apical exposure, 4 °C)","intracellular BSA-FITC uptake (in words) ([1]; apical exposure, 37 °C)","intracellular BSA-FITC uptake (in words) ([1]; basolateral perfusion, 37 °C)",FITC-inulin leakage ([2]; HFM fully covered with ciPTEC-OAT1),FITC-inulin leakage ([2]; unseeded coated HFM (no cells))
BSA-FITC: FITC-bovine serum albumin,highly reduced,active uptake of BSA-FITC was detectable,could not be detected,–,–
FITC-inulin,–,–,–,10 ± 3%,89 ± 4%
